Data from article PMC10393996.
These are yes or no findings as the source states them, for the method shown. In cells and extracts the contact can be indirect. A yes stands for co-enrichment or nearness to the bait. Other partners may have been found.

Chains of the proteins cited; added tags and fusions are not shown.
UniProt P06401: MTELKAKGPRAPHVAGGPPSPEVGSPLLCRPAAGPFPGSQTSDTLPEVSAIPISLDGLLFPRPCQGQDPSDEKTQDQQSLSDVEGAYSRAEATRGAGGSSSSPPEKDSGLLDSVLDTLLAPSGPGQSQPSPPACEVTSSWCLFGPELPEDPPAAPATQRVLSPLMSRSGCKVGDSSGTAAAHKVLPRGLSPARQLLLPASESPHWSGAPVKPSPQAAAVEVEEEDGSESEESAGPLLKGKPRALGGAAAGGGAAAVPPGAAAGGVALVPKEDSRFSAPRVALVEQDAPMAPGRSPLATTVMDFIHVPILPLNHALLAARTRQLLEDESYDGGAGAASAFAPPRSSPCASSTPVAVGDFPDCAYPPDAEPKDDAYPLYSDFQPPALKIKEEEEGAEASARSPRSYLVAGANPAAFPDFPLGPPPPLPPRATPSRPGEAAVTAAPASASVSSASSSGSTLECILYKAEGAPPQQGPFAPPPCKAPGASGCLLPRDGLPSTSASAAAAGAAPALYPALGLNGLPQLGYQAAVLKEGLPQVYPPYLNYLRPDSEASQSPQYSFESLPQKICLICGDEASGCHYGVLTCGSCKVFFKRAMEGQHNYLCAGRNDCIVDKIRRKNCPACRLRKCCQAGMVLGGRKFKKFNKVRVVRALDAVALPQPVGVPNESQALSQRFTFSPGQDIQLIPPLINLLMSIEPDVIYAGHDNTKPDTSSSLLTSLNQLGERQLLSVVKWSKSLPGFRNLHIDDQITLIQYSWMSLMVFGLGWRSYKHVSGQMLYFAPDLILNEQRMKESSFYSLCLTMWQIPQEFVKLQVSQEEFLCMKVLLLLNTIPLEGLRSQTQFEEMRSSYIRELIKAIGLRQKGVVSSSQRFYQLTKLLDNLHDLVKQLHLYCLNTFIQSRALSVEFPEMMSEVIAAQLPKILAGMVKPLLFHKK
UniProt Q13263: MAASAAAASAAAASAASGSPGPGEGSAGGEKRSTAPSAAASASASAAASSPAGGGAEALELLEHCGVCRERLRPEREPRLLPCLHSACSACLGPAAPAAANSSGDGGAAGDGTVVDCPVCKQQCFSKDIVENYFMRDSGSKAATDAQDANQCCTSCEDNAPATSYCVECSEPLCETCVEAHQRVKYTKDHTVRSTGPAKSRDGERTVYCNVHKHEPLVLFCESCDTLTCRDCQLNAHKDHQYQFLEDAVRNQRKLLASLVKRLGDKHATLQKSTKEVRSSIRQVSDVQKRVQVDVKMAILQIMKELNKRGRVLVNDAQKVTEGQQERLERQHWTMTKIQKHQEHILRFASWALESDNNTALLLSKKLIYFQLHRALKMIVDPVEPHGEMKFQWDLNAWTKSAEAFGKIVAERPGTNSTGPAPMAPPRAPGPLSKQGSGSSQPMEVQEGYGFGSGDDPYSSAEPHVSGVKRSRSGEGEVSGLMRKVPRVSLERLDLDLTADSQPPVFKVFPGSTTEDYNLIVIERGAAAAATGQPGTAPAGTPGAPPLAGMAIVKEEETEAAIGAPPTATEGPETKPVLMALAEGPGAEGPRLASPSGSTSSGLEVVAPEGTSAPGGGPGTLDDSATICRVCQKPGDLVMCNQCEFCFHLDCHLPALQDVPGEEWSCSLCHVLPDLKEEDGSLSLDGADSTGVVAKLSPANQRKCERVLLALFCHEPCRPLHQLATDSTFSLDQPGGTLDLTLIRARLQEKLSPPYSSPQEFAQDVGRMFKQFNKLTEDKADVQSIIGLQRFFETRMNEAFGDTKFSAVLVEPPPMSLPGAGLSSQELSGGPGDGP

Target: progesterone receptor (PR), endogenous in primary human endometrial stromal cells (human (endogenous in primary HESCs)) (UniProt P06401)
Experiment: affinity purification with mass spectrometry; RIME: decidual primary HESCs (EPC three days, three donors mixed) fixed by 1% PFA for 8 min; chromatin immunoprecipitated with antibody against PR and protein G magnetic beads; IgG control; LC-MS/MS

binding: binds
Substance: TRIM28 (Tripartite motif containing 28), endogenous in primary human endometrial stromal cells (from UniProt Q13263 1-835)
